According to PubChem BioAssay AID485349 (National Center for Advancing Translational Sciences (NCATS), 2010):
The campaign covered roughly 320,000 compounds. About 620 (0.19%) were called active. This list was built around the results that the source calls inconclusive (neither active nor inactive); the mix of calls is not that of the screen. Calls follow the shape of the dose curve; as a rule, active = well fitted activation curve with a large enough effect; inconclusive = small, poorly fitted or top-dose-only effect; inactive = no such curve, though single readings can be large or run the other way. Potencies beside an inconclusive call are fits to weak or partial responses and may not hold up.

Test: qHTS Assay for Identifying a Potential Treatment of Ataxia-Telangiectasia; also: nearly all actives have a fitted effect of over 45% in size; as to activation: % of control where 0% means no effect
Settings: […] A-T fibroblasts, KAP-1 phosphorylation AlphaLISA, neocarzinostatin DNA damage 30 min before lysis; series mostly up to 57.5 µM; activation: at the top concentration
Method in brief: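 ATM-like activity read as KAP-1 phosphorylation via AlphaLISA donor/acceptor antibody pairs after lysis and 6 hr at 25C. Cells were ATM-null patient fibroblasts ([…], hTERT), dosed 60 min, then exposed to the DSB inducer NCS for 30 min.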
Potency is read from the fitted curve at half-maximal effect.

Compound	Potency	activation
CC(C)CSc1ncc(-c2cccc(C(F)(F)F)c2)cn1	inconclusive: 35.5 µM [activator, single point]	–
O=C(NCC1CCCO1)C(C(=O)c1ccccc1)n1ccccc1=O (stereo not given)	–	inactive: 27.7%
O=C(CSc1nc2ccccc2s1)N/N=C/c1cc([N+](=O)[O-])ccc1O	inconclusive: 22.4 µM [activator, partial curve, poor fit]	–
O=C(COc1ccccc1F)Nc1ccc(S(=O)(=O)Nc2nccs2)cc1	–	inactive: -7.41%
COc1ccc(C2CC(c3ccccc3)=NN2c2ccccc2)c(C(=O)O)c1OC (stereo not given)	inconclusive: 31.6 µM [activator, partial curve]	–
O=C1C=C(NC2=CC3OC(c4ccccc4)OCC3OC2=O)CCC1 (stereo not given)	inconclusive: 31.6 µM [activator, single point]	–
CN1CCN(S(=O)(=O)c2ccc(Cl)cc2)CC1	inconclusive: 0.631 µM [activator, full curve, poor fit]	–
O=C(Nc1c2ccccc2nc2ccccc12)C(Cl)(Cl)Cl	inconclusive: 22.4 µM [activator, single point]	–
CCCC(c1nnnn1Cc1ccco1)N1CCN(C(=O)c2ccco2)CC1 (stereo not given)	inconclusive: 39.8 µM [activator, partial curve]	–
CCNC(=O)NC(=O)COC(=O)c1ccccc1SCC(=O)NC(=O)NCC	inconclusive: 39.8 µM [activator, partial curve]	–
COc1ccc(-c2nc(C(=O)NCCCN3CCOCC3)cc3c2[nH]c2ccccc23)cc1OC	inconclusive: 31.6 µM [activator, partial curve]	–
Cc1cc(O)ccc1N/C=C(\C#N)c1nc2ccccc2o1	–	inactive: 2.42%
CCN(CC)c1ccc2cc(-c3nc4ccccc4[nH]3)c(=O)oc2c1	inconclusive: 8.91 µM [activator, partial curve]	–
COc1ccccc1CNC(=O)C1CCC(CNS(=O)(=O)c2ccc(C)cc2)CC1 (stereo not given)	inconclusive: 3.98 µM [activator, partial curve]	–
COc1cc(NC(=S)NC(=O)C(C)C)ccc1NC(=O)c1cc2ccccc2o1	–	inactive: 2.84%
Cc1ccccc1CN1CCc2c(OCC(=O)N3CCCc4ccccc43)cccc2C1=O	–	inactive: -0.662%
Cc1ccc(C(C)C)c(OCCN2CCc3ccccc3C2)c1	active: 35.5 µM	–
NC(=O)[C@@H]1CC2(CC(c3cccc(NC(=O)CC(c4ccccc4)c4ccccc4)c3)=NO2)CN1C(=O)COc1ccc(Cl)cc1 (stereo not given in full)	active: 35.5 µM	–
CN(C)S(=O)(=O)c1ccc(N2CCCC2)c(C(=O)NNC(=O)c2ccc(F)cc2)c1	inconclusive: 2.51 µM [activator, partial curve, poor fit]	–
Cc1ccc(Nc2nc(=O)c3cccnc3s2)c(Br)c1	inconclusive: 0.631 µM [activator, full curve, poor fit]	–
Cc1cc(C)nc(SCc2csc(N)n2)n1	inconclusive: 22.4 µM [activator, partial curve]	–
Cc1cccc(N2CCN(C(C)C(=O)N3CCc4ccccc43)CC2)c1C (stereo not given)	inconclusive: 39.8 µM [activator, single point]	–
Cc1ccc(-c2cc(C(=O)N/N=C/c3ccc(Cl)cc3)n[nH]2)o1	inconclusive: 35.5 µM [activator, partial curve]	–
O=C(CSc1n[nH]c(=O)[nH]c1=O)N/N=C/C=C/c1ccccc1	inconclusive: 39.8 µM [activator, single point]	–

Compound	Potency	activation
Cc1ccc(CN(C)S(=O)(=O)c2c(C)noc2/C=C/N(C)C)cc1	inconclusive: 39.8 µM [activator, single point]	–
Clc1ccc(-c2csc3ncnc(Cl)c23)cc1	–	inactive: -5.46%
CCN(CC)S(=O)(=O)c1ccc2c(c1)c(=O)c(C(=O)N1CCN(c3ccccn3)CC1)cn2C	inconclusive: 10 µM [activator, partial curve]	–
CNC(=S)N(CCc1c(C)[nH]c2ccc(Cl)cc12)Cc1cccnc1	active: 0.891 µM	–
COc1ccc2cc(C(C)C(=O)N3CCC(C(N)=O)CC3)ccc2c1 (stereo not given)	–	inactive: -3.93%
COc1ccc(NC(=O)C2CCCN2S(=O)(=O)c2cccc3nsnc23)c(OC)c1 (stereo not given)	inconclusive: 39.8 µM [activator, single point]	–
COc1ccc(N=NC2C(=O)N(c3ccccc3)N=C2C)cc1 (stereo not given)	inconclusive: 0.708 µM [activator, full curve, poor fit]	–
Cc1cc(C)nc(SCc2ccc(C(=O)NNC(=O)Nc3cccc(Cl)c3)cc2)n1	–	inactive: -1.38%
O=c1c2ccccc2oc2cc(-c3ccc(CN4CCOCC4)cc3)ccc12	inconclusive: 35.5 µM [activator, single point]	–
CCOc1ccc(NC(=O)CCS(=O)(=O)c2cccc3nsnc23)cc1	inconclusive: 6.31 µM [activator, single point]	–
CCN(CC)c1ccc(NC2=C(Cl)C(=O)c3ccccc3C2=O)cc1	inconclusive: 3.98 µM [activator, single point]	–
COCCCNC(=O)CN1CCN(Cc2ccccc2Cl)C1=O	active: 39.8 µM	–
COc1ccc(-n2c(C)cc(=O)[nH]c2=O)cc1	inconclusive: 6.31 µM [activator, single point]	–
CC(C)(C)C1CCC2(CC1)CC(=O)c1ccccc1O2 (stereo not given)	inconclusive: 39.8 µM [activator, single point]	–
COc1ccc(C2CC(c3ccccc3)=NN2c2ccc(S(N)(=O)=O)cc2)cc1 (stereo not given)	inconclusive: 25.1 µM [activator, partial curve]	–
CCOC(=O)CC1=NN(c2ccccc2)C(=O)C1	–	inactive: -3.35%
CC(=O)c1cccc(S(=O)(=O)Nc2cccnc2)c1	–	inactive: 10.1%
CCCCCCCCCCCC(=O)c1c(O)cccc1O	inconclusive: 39.8 µM [activator, partial curve, poor fit]	–
CC(C)(C)c1ccc(C(=O)Nc2ccccc2Cl)cc1	inconclusive: 35.5 µM [activator, single point]	–
C=CCc1cccc(CNc2nc3ccccc3n2CCC)c1O	inconclusive: 3.98 µM [activator, single point]	–
CC(C)CCn1c(SCc2ccc(Cl)cc2)nc2c1c(=O)[nH]c(=O)n2C	inconclusive: 7.08 µM [activator, single point]	–
Cc1cccc(NC(=O)c2ccco2)c1C	inconclusive: 28.2 µM [activator, partial curve]	–
CCOc1cc(C(=S)N2CCOCC2)ccc1OC	–	inactive: 3.53%
S=C1NC[C@H](CC2CCCCC2)N1CCc1cccc2ccccc12	inconclusive: 39.8 µM [activator, single point]	–

Fetched one by one from the list above (3):
Compound	Potency	activation
CC(=O)c1cccc(S(=O)(=O)Nc2cccnc2)c1	–	inactive: 10.1%
O=C(CSc1n[nH]c(=O)[nH]c1=O)N/N=C/C=C/c1ccccc1	inconclusive: 39.8 µM [activator, single point]	–
COc1ccc(-c2nc(C(=O)NCCCN3CCOCC3)cc3c2[nH]c2ccccc23)cc1OC	inconclusive: 31.6 µM [activator, partial curve]	–

(further entries)

Compound	Potency	activation
Cc1noc(NS(=O)(=O)c2ccc(NC(=O)COc3ccc(C#N)cc3)cc2)c1C	–	inactive: -2.93%
CC(C)CCNc1nc2c(cc1C#N)COC(C)(C)C2	inconclusive: 39.8 µM [activator, single point]	–
COc1cc(/C=C2\SC(c3ccc(C)cc3)=NC2=O)cc(OC)c1O	–	inactive: -18.9%
CC(C)CNS(=O)(=O)c1cc(C(=O)O)c(Cl)cc1Cl	inconclusive: 0.708 µM [activator, full curve, poor fit]	–
O=C1C=C(N2CCOCC2)c2ccccc2C1=O	inconclusive: 7.08 µM [activator, single point]	–
O=C(Nc1ccc(Cl)cc1Cl)c1cc2ccccc2o1	inconclusive: 39.8 µM [activator, single point]	–
CC1CCCCC1NC(=O)CN1C(=O)NC(C)(c2cccc(Br)c2)C1=O (stereo not given)	–	inactive: -0.0352%
CCN(CC)c1ccc(NC(=O)c2ccccc2F)cc1	–	inactive: -3.78%
O=C(O)CC(NC(=O)CCc1ccccc1)c1ccc(Cl)cc1 (stereo not given)	–	inactive: 4.97%
COc1cc(C(=O)Nc2scc(-c3ccc(C)cc3)c2C(=O)O)cc(OC)c1OC	inconclusive: 12.6 µM [activator, partial curve]	–
CCOC(=O)/C(=N\Nc1ccccc1)P(=O)(c1ccccc1)c1ccccc1	inconclusive: 39.8 µM [activator, partial curve, poor fit]	–
O=C(C(c1ccccc1)c1ccccc1)N1CC[C@@]2(O)CCCC[C@H]2C1	inconclusive: 2.82 µM [activator, partial curve, poor fit]	–
COc1ccc(C2/C=C\CN(S(=O)(=O)c3ccc4ccccc4c3)CC(=O)N2Cc2ccc(F)cc2)cc1 (stereo not given)	inconclusive: 5.62 µM [activator, single point]	–
COc1ccc(-c2csc(-n3ncc(C(=O)O)c3C(F)(F)F)n2)cc1	active: 39.8 µM	–
Fc1c(F)c(C(F)(F)F)c(F)c(F)c1N/N=C\c1cccs1	inconclusive: 39.8 µM [activator, single point]	–
CC(C)(C)c1cccc(Cn2nnc3ccccc32)c1O	inconclusive: 39.8 µM [activator, partial curve]	–
COc1ccc2c(Cl)c(-c3nnc(SCC(=O)c4ccccc4)n3C)sc2c1	inconclusive: 35.5 µM [activator, single point]	–
Clc1cccc(CN2CCc3c([nH]c4ccccc34)C2)c1	inconclusive: 39.8 µM [activator, single point]	–
Cc1cc(N2C(=O)C(O)=C(C(=O)c3ccco3)C2c2ccc([N+](=O)[O-])cc2)no1 (stereo not given)	–	inactive: 1.22%
FC(F)(F)c1cccc(-c2cc3ccccc3nc2N2CCCC2)c1	inconclusive: 28.2 µM [activator, single point]	–
O=C(NCC(=O)N1CCN(C(c2ccccc2)c2ccccc2)CC1)c1ccccc1F	inconclusive: 25.1 µM [activator, partial curve]	–
CCN1CCN(Cc2ccc(NC(=O)c3ccc(C)c(NC(=O)c4cccc5[nH]ccc45)c3)cc2C(F)(F)F)CC1	inconclusive: 39.8 µM [activator, partial curve, poor fit]	–
